Measurements taken from paper PMC9769623.

B1: Sln1 (protein, UniProt Q5A872 1-1373)
chain: MRRLKIGIRPQLIIIVCFASLFSLLILGIVTGIYFSANLKNLRLERLLVISQLKRTQVQQAIQYIAYQVMTVSEVDSLTVPLSNYRAGNNSKAVFSEAQNYLQQYVLTTDSFTAARLYDLDLQVVASSFDNMTLISESAQDVVYPLQPNRSMPPVLGTPSGLYFTGPIANNSDNFNSRYFMGITVPVLSNSSIILSQPSISGYLTIVAAAESIRSALNSTSEDDYQAMAVQPVYGDPQKGIDNLSQNAYNGDNEVIGFKLVFPVENSLLEAGTIYNINSSSSMKTALASNSGTATGVKSFFGKKVAIGFSRISVQDNLNWSIVIVQSNSVFNGPANKLRKITIGVVIGIGAFMCFVTFPLAVWFIRPITKLKEATEAITKYKKEKLNSVNSNSPTSGSGSGSGSGSGSRANSDSSADQSLSLDTGKRNSINSSSFSSSYSTGIRLPARIPRSKKIFKDELTELSEAFNIMTEELDKQYTHLEDRVKLRTKELEASKIQAEAANEAKTVFIANISHELRTPLNGILGMTSIAMEEEDPNVIHDSLKLIHRSGELLLHILTELLTYSKNTLNRSKLEKSNFQILEIVYQVRSIFNKLAHDQRVNFKILVKPNIFRKLIIYGDSNRIIQIVMNLVSNSLKFTPVDGSVSVSFKLLGEYDHERSKKLDYKKVCILNDSSSSTVAVPPPTPPSDTKPNPKPKSTPTPKPDPTRSHLVDHNNRSANTTSPLTPVRKPTNQTKNKSITNNVTKQNMKIRKKKKTNKNLHNNNNNNKNDNSDFLMNRRLSGSHKFNNTNDEELSPTAIEKNIDKYLTSSADSDNISVTTLSTVQYETTIFESQFKSKPLPALPVDAKPQVSGKIDENDVNDEDPSGGSIKDDDSEDTINEKQGISSSPSSSSSSNEKQENSPRSNDSTTVTVTRPRHNMMPSAQDFKSYPTFDKKPEYDSNMSNNEIVKNNRVYRIRNMYQPKVWVIQIEVTDTGPGIEPALQEKVFEPFVQGDQTLSRSYGGTGLGLSICRQLATMMHGTLTLKSTIGKGSTFTLTLPLPQTGEIMVPPEDMAEFCEDEFNPAAKINRKVAFEDGDIDTESQQQENPSSEEDTQGDRNVQSSTSSSPPNSSSTDSALPASDSSDIGGTNKSKTTSHGNNKNINAKKRIITNSSASSTKGTKRHTNNDGGGGVNGNHSDDNKDLTLTIDKPSLFTRGSTGTANSGTTSSHSDKKILYPTPTTTTTTTTTTDHTTVLDDISHLRVLVAEDNSVNQEVISRMLKQEGITNLTMACNGAKAIDFVKESIENNENFDLIFMDVQMPEVDGLKATKMIRKNLQYNKPIIALTAFADESNVKECLNSGMSGFITKPISKTNIKKVLVEFLSNEVVTS
B2: Rim20 (protein, UniProt Q9UW12 1-785)
chain: MNTNLLFIPLKQSSVLDLGDELRQVITNNYFQPASSFNSDLIYITQLRNQVAQIKNVNDELGKTSQDDSILLEYLQVLNTLQNKFSDDCVEFAWFDTLAYGPQGPYRYRSLKIEKLNVIYQIGSLYSQIAISESRHTDIGLKRACHYFQLSAGCFMFINNFLIETIKNKNDPLVLSIPLSMQSSTIQCLEYLMLAQAQETIWQKAINNNSMKDSVVARLSIQTSEYYSKALDFGNSSDLIKLEWINHMKVKKLHFLAAAHLRSSTIAADSFQYGEQVAHLRVASQAVDQALKSKKYVNSLVLEDLQGLADVIKVRLRTAEKDNDLVYLKIVPQEKELKTIIGVSMVKSIIPEAFEQKPESNTEIFKELLPYVIIHVAQAMRERQDEYVQTKFHTPISSLNNMLVKFLIDRDLPSSIDSIQQPENIPDSVIHHSQEILKTGGVDFIDKAFKELDKLKLECNHLLQECETRIDLDRSEDDMLRRKQGSTRWTRKSTDDAAQELIKKVDKMKQYLLQANNGDGFVLKKFYDIKPALDVYSSGYKALSQYIPNSQYIELPEQLSIVISDLRSCLARANTLESERKEFLQTLEIRSRDNSILPKLITEYNSNRSKYQTENGEFNFNAFESVYEKHMKLFDSDIKYIARTRDSQMTLEHEIDSINQKFVQEFKSLQNSSNEKRQQVLQYLETAYEKFLEIINNLTEGSKFYTDFIEKGSAVLQECEEYLYRRRVESRDLELAISNSFQQQQQVQEQNEQLSVPRNYSNDKLISPKTSKPGLWNPNSDIQFS
B3: Pan1 (protein, UniProt Q5AHB1 1-1396)
chain: MYNPYQQQQQGMGYNPQQQTGYGYNNYQMPQQPQFNQQPMYPQATGFVPQQPNLYGSNFQTSGGSGMAPQQTGFSQQQTMQPQQTGYIQTQPTGFGGTAPIVTENSELKIPSIRLSFISAEDQKKFEHLFRTAVPKGEQSISGDSASGILLRSGLSAVTLAEIWNLSDIDKTGSLLFPEFALSLHLCSMAKRGEPLPGILPEKWLNEVRSFVDQINFTVPDDPSKILANTPFANFAPKKESDWLAPQSTGYLQNQSAPPMTSFQPQVTGFGGQGLVSQATGGVPMPSTTFGNAAGLTAQRTGGGTLIPLQPQQTAGLIPAQKTGPLNPQTTGFNQQSLQQQRTGGLPQQLTGYQGPPQGQGQQLQQQRTGGFPQVQSQPTGGFVPQTSFQQPQLVSQRTGPMQAQPTGSLQAQPTGRPGEWGFVSMPTGGIPGLNAMQQHFLPNNQLPTSNLHSAMDNKLKENVTWAITKQEKQIYDGLFQAWDNQKKGYVDSNVALNVFTKSGLSRSDLESIWTLVDTDDTGKLNKNQFAVAMHLIYRRLNGYDIPLRLPPELIPPADRTLKDTMDSLKNSLKGGVNNKPTKPPKPQSKPDGTRFKNDDNNFGYVSNVRHRRKSTSDESHKSSVKSSSDYDLSIEDMKKLIHEKRILLDALDTEDQANNYSRSSSSMHEKQIIENLKKEIMAVQTKLDERGNDGPSSDERNKLLATLDHLTRDVVPRLISDIHKVNQEISRKKAEVFKLELLKKNPSWNPEDDESQIQGTGPNGEVTDYDRIKYQSRQKLKQRMAALTGKSTGGNSDLDLELKQATEKAQDEASRQSEMIQDIAAGIKTMEDECAAKLSSSVTEDVGHEKWEQGKGISSEVAKFVKELEAFSKEQRRNIAKSQKQEQTREPLAKQQTNASLVSDSGAAKSAYATPEERAAYIKQQAEKRMNERLAKLGITRKSKSTEQKPPVESKSVSNHSPVPDSEVKSVTRNANEVEVQKPKPDSQPVSKNREPAEQPNSKADTNSVGSQNVVSNTNDDTSGDDDDEEYKAILKQKQEMEARERERKLRKQKAKEERLAKIKKEMEEMKKREMEESQDEEEEEAKQVTSVHVSRAQSSNANSNVIPQQETATENVNTVSQPTSTDTAKQSYHPHESNPFSKMNNNTSQNSTVTNTGTNPFFKSTSQETKIDPHKAEAQRASQRGVASSGGWSDSEEEESEEESPNRAGAAKLASLLFGGMPQPPTTSSSSLNNDAEKVSEQEHENAKQVASTPLSNDDNGKTDSGPSGFAGENESSFSQAPPIPVDAPPAPNSIPPPPPPPPQFSNEAPPVPDSIPPPPPPPSVPSTVPALPDSMPPPPPPPPPPAAPNNTSSSQQASGAPNIGALLGQITGGASLRKVETKVSSGATVGRVL
B4: Cap1 (protein, UniProt Q5A6P9 1-545)
chain: MSTEESQFNVQGYNIITILKRLEAATSRLEDITIFQEEANKNHYGVDSLTEKGTPKSRTVESSEATSDGKSLESTSFATFSEAPVEKSKLIVEFENFVESYVHPLVETSKKIDSLVGESAQYFYEAFVEQGKFLELVLQSQQPDMTDPALAKALEPMNAKCTKINELKDSNRKSPFFNHLSTFSESNAVFYWIGIPTPVSYITDTKDTVKFWSDRVLKEYKTKDQVHVEWVKQTLSVFDELKNYVKEYHTTGVAWNPKGKPFAEVVSQQTESAAKNSSSASGSAGGAAPPPPPPPPPATFFDDTEKDSENPSPASGGINAVFAELNQGANITSGLKKVDKSEMTHKNPELRKQPPVAPKKPAPPKKPSSLSGGVSSAPVKKPAKKELIDGTKWIIQNFTKADISDLSPITIEVEMHQSVFIGNCSDVTIQLKGKANAVSVSETKNVALVIDSLISGVDVIKSYKFGIQVLGLVPMLSIDKSDEGTIYLSQESIDNDSQVFTSSTTALNINAPKENDDYEELAVPEQFVSKVVNGKLVTQIVEHAG
B5: Mp65 (protein, UniProt Q59XX2 33-378)
chain: AVHVVTTTNVVVVTIGNGDQTTTFAAPSVAAESSVSVSVNTEPPQNHPTTTQDVASASTYPSSTDGSAASSSAAASSSSQAGSEPSGGVGSGGAKGITYSPYSDNGGCKSESQIASEIAQLSGFDVIRLYGVDCSQVEAVLKAKTSSQKIFAGIFDVSSITSGIESLAEAVKSCGSWDDIYTVSIGNELVNAGSATPSQIKAYVEEGRKALKAAGYTGPVVSVDTFIAVINNPDLCDYSDYMAVNAHAFFDGHVVAENSGAWVLQQIQRVWTACGGKKNVLITETGWPSRGDSNGVAVPSKSNQQAAISSIKSSCGASAILFTAFNDLWKADGPYNAEKYWGIYSN
B6: Ywp1 (protein, UniProt Q59Y31 22-511)
chain: QDVACLVDNQQVAVVDLDTGVCPFTIPASLAAFFTFVSLEEYNVQFYYTIVNNVRYNTDIRNAGKVINVPARNLYGAGAVPFFQVHLEKQLEANSTAAIRRRLMGETPIVKRDQIDDFIASIENTEGTALEGSTLEVVDYVPGSSSASPSGSASPSGSESGSGSDSATIRSTTVVSSSSCESSGDSAATATGANGESTVTEQNTVVVTITSCHNDACHATTVPATASIGVTTVHGTETIFTTYCPLSSYETVESTKVITITSCSENKCQETTVEATPSTATTVSEGVVTEYVTYCPVSSVETVASTKVITVVACDEHKCHETTAVATPTEVTTVVEGSTTHYVTYKPTGSGPTQGETYATNAITSEGTVYVPKTTAVTTHGSTFETVAYITVTKATPTKGGEQHQPGSPAGAATSAPGAPAPGASGAHASTANKVTVEAQATPGTLTPENTVAGGVNGEQVAVSAKTTISQTTVAKASGSGKAAISTFEG
B7: Hem15 (protein, UniProt Q59U72 1-386)
chain: MMFRSTFKPTCIARRGFFRFNSSNSSKPPTGIVFMNMGGPSKVEETYDFLLRLFSDGDLIPFGRFQNILAKFIAKRRTPKIEEHYREIGGGSPIRKWSEYQCKKVCEILDKTSPETAPHKPYVAFRYANPLTEETLNDMKKDGVTKAVAFSQYPQFSYSTSGSSMNELYRQTLIHDPERTIDWSFIDRWPQQPGLVKAFANNIKEKLAEFPPQDRDDIVILFSAHSLPMEIVNLGDSYPAEVAATVYKIMEELKFSNPYRLVWQSQVGPKPWLGGQTSKIIDKLEKRDDIKGIVLVPVAFTSDHIETLHELDIEILEDATNPHKIKRAESLNGNETFIEGLADLVKSHLKSGEKYSKQLELDCILGSERAQGTFKHPNEIFGNRKN
B8: Snf1 (protein, UniProt P52497 1-620)
chain: MSEQAQPQASADQQQHQHNHHHHHHHHHHNENQSQQQVPIDPAANPANRIGRYQILKTLGEGSFGKVKLAQHLGTGQKVALKIINRKTLAKSDMQGRVEREISYLRLLRHPHIIKLYDVIKSKDEIIMVIEFAGKELFDYIVQRGKMPEDEARRFFQQIIAAVEYCHRHKIVHRDLKPENLLLDDQLNVKIADFGLSNIMTDGNFLKTSCGSPNYMPAPEVISGKLYAGPEVDVWSAGVILYVMLCGRLPFDDEFIPALFKKISNGVYTLPNYLSAGAKHLLTRMLVVNPLNRITIHEIMEDDWFKQDMPDYLLPPDLSKNKNSKIDVDEDVIRALSVTMGYDRDCKIVNVIEKANKQVAAGNSSSQQSKSSNEILDAYLLMKENHALVKDLKKSKSENIESFLSQSPPPSPFPNRGSTSSAPGVQQSLTYQTLATVPDLSTLPNSTIAILPTSLPSIHRAYMAETKQNGDPSQQHAPPPTKKSKTRWHFGIRSRSYPLDVMGEIYRALKNLGAEWAKPTEEELWTIRVRWKYDTSAQFECGSAPNLMKMQIQLFQLEPNNYLVSFKFSGWESAHGNAGTDSPQSHRQQDLDEVGSFSAYPFLHLATRLIMELAVNSQSG

These binders were tested against Myc-Cyr1 (C. albicans) (assay: affinity purification with mass spectrometry; SILAC: extract of GZY809 (Myc-Cyr1, heavy medium) and of control GZY808 (Myc epitope alone, light medium) on anti-Myc affinity gel, 4°C, 4 h; beads combined during washes; lysis buffer 50 mM Tris-HCl pH 7.4, 150 mM KCl, 1% NP-40; yeast growth conditions (GMM, 30°C, no serum); cutoff normalized H/L ratio 1.5:1).

Binder | binding
B1 | binds
B2 | binds
B3 | binds
B4 | binds
B5 | binds
B6 | binds
B7 | binds
B8 | binds

Results are given in words; binding and its absence hold for the method and conditions named. Binding seen in cells or lysates may run through a third protein. These calls come from enrichment with a bait or labelling near it, and not all partners need be listed.
